Experimental data: PMC6517424
These are yes or no findings as the source states them, for the method shown. Binding seen in cells or lysates may run through a third protein. Some entries that bind do so weakly or less than the wild type. Tags and fused reporters may be left off the sequences shown.

Amino acid sequences for entries named in this document (tags omitted).
UniProt P56524: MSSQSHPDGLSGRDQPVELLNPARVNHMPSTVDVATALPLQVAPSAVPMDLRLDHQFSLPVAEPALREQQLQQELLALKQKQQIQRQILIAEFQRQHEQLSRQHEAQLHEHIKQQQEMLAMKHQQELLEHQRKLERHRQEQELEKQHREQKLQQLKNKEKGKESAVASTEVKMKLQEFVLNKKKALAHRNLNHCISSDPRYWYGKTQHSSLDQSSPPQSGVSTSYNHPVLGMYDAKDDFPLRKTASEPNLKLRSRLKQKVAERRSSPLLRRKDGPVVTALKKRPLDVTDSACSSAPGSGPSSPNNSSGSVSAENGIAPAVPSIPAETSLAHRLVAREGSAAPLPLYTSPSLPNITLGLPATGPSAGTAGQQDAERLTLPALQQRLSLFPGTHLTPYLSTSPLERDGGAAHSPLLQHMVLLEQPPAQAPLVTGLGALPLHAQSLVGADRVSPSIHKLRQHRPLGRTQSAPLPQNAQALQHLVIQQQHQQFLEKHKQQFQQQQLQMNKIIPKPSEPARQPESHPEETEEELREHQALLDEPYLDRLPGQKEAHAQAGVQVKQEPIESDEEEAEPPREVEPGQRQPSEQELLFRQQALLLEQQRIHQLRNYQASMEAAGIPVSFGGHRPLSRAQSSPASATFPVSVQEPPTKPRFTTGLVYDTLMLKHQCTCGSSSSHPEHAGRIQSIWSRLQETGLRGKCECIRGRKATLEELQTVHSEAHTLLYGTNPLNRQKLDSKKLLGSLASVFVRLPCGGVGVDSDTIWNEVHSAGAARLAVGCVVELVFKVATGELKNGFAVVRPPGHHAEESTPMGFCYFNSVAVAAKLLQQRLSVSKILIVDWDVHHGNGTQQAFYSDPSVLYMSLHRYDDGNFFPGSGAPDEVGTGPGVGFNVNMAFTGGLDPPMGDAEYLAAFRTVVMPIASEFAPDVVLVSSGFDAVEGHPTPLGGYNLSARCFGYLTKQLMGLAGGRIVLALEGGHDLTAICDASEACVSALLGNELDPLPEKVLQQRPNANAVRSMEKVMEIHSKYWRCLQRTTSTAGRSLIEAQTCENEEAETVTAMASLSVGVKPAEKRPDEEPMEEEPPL

Target: HDAC4-Flag (UniProt P56524)
Assay: co-IP; HepG2 cells co-transfected with HA-Nup155 and HDAC4-Flag, harvested after 24 h in non-denaturing lysis buffer; anti-Flag antibody on Dynabeads Protein G mixed with whole protein lysate overnight at 4 °C; IgG1 as negative control; immunoblot

B1: Nup155 (N-terminally His6-HA-StrepII-tagged) (protein, UniProt O75694 1-1391)
chain: MPSSLLGAAMPASTSAAALQEALENAGRLIDRQLQEDRMYPDLSELLMVSAPNNPTVSGMSDMDYPLQGPGLLSVPNLPEISSIRRVPLPPELVEQFGHMQCNCMMGVFPPISRAWLTIDSDIFMWNYEDGGDLAYFDGLSETILAVGLVKPKAGIFQPHVRHLLVLATPVDIVILGLSYANLQTGSGVLNDSLSGGMQLLPDPLYSLPTDNTYLLTITSTDNGRIFLAGKDGCLYEVAYQAEAGWFSQRCRKINHSKSSLSFLVPSLLQFTFSEDDPILQIAIDNSRNILYTRSEKGVIQVYDLGQDGQGMSRVASVSQNAIVSAAGNIARTIDRSVFKPIVQIAVIENSESLDCQLLAVTHAGVRLYFSTCPFRQPLARPNTLTLVHVRLPPGFSASSTVEKPSKVHRALYSKGILLMAASENEDNDILWCVNHDTFPFQKPMMETQMTAGVDGHSWALSAIDELKVDKIITPLNKDHIPITDSPVVVQQHMLPPKKFVLLSAQGSLMFHKLRPVDQLRHLLVSNVGGDGEEIERFFKLHQEDQACATCLILACSTAACDREVSAWATRAFFRYGGEAQMRFPTTLPPPSNVGPILGSPVYSSSPVPSGSPYPNPSFLGTPSHGIQPPAMSTPVCALGNPATQATNMSCVTGPEIVYSGKHNGICIYFSRIMGNIWDASLVVERIFKSGNREITAIESSVPCQLLESVLQELKGLQEFLDRNSQFAGGPLGNPNTTAKVQQRLIGFMRPENGNPQQMQQELQRKFHEAQLSEKISLQAIQQLVRKSYQALALWKLLCEHQFTIIVAELQKELQEQLKITTFKDLVIRDKELTGALIASLINCYIRDNAAVDGISLHLQDICPLLYSTDDAICSKANELLQRSRQVQNKTEKERMLRESLKEYQKISNQVDLSNVCAQYRQVRFYEGVVELSLTAAEKKDPQGLGLHFYKHGEPEEDIVGLQAFQERLNSYKCITDTLQELVNQSKAAPQSPSVPKKPGPPVLSSDPNMLSNEEAGHHFEQMLKLSQRSKDELFSIALYNWLIQVDLADKLLQVASPFLEPHLVRMAKVDQNRVRYMDLLWRYYEKNRSFSNAARVLSRLADMHSTEISLQQRLEYIARAILSAKSSTAISSIAADGEFLHELEEKMEVARIQLQIQETLQRQYSHHSSVQDAVSQLDSELMDITKLYGEFADPFKLAECKLAIIHCAGYSDPILVQTLWQDIIEKELSDSVTLSSSDRMHALSLKIVLLGKIYAGTPRFFPLDFIVQFLEQQVCTLNWDVGFVIQTMNEIGVPLPRLLEVYDQLFKSRDPFWNRMKKPLHLLDCIHVLLIRYVENPSQVLNCERRRFTNLCLDAVCGYLVELQSMSSSVAVQAITGNFKSLQAKLERLH
- binding: binds
